Source: the supplement of paper PMC10849652
The list shows a part of the results. Residues, ends and D or L forms follow the SMILES beside them. *: point of attachment. Cbz = O=C(OCc1ccccc1)*

Amino acid sequences for entries named in this document (tags omitted). A change or cut given only in a name is not applied to a line headed by its entry.
UniProt Q8WVQ1: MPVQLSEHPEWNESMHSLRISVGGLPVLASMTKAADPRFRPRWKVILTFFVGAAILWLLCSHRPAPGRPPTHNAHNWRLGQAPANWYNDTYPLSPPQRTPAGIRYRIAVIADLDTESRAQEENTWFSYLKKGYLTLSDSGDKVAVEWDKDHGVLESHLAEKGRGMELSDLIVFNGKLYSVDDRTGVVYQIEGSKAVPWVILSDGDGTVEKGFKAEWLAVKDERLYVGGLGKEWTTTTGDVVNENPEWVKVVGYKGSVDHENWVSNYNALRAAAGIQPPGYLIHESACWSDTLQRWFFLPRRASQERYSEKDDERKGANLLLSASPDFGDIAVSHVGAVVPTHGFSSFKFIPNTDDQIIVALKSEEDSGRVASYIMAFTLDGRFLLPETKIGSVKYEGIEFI
UniProt Q96B23: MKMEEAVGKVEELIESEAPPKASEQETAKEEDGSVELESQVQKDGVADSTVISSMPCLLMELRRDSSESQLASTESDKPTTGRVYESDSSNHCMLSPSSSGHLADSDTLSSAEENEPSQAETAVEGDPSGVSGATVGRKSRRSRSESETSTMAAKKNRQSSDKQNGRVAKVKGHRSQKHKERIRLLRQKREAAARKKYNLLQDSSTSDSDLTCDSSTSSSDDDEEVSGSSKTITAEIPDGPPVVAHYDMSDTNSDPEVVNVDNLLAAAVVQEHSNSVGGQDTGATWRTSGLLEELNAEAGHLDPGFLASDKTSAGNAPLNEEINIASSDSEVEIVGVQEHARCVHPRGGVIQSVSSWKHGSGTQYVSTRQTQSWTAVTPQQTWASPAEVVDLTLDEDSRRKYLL
UniProt Q14444, whole entry, looked up: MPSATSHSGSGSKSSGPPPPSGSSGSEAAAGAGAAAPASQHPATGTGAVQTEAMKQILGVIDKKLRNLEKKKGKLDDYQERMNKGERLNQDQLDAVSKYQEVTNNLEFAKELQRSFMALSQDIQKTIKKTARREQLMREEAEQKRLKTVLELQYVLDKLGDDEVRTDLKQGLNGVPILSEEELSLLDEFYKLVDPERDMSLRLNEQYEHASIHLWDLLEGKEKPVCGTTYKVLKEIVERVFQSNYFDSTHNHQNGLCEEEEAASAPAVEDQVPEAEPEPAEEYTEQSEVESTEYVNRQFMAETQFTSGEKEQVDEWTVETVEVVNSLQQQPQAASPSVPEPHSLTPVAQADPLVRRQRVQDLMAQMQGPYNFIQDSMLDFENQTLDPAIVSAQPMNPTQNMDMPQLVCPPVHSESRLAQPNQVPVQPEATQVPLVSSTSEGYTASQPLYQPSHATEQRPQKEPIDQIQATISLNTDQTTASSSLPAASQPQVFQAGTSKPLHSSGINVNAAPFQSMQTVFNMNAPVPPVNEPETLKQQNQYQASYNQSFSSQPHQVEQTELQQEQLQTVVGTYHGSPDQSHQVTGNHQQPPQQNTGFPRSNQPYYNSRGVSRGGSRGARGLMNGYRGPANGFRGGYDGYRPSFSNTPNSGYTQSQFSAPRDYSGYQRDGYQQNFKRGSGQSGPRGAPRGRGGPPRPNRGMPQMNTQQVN
UniProt Q8N8R5: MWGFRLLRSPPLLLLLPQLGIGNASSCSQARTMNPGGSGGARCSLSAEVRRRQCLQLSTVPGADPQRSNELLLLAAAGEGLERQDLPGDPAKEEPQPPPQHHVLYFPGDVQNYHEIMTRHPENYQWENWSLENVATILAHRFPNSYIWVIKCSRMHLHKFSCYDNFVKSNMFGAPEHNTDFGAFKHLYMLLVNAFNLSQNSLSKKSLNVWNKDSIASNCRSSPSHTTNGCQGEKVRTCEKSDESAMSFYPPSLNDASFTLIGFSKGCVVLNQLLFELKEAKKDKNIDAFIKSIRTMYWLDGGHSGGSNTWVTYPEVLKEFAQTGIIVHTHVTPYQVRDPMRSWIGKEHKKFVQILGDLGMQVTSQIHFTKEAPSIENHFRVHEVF
UniProt P04632: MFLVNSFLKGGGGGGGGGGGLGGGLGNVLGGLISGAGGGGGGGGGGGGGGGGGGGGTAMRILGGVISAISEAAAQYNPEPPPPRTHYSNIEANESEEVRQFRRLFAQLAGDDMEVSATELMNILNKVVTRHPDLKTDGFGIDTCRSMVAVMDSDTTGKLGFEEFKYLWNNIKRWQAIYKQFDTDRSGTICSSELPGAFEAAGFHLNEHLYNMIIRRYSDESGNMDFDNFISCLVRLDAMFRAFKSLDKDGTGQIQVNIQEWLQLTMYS
UniProt Q9Y376: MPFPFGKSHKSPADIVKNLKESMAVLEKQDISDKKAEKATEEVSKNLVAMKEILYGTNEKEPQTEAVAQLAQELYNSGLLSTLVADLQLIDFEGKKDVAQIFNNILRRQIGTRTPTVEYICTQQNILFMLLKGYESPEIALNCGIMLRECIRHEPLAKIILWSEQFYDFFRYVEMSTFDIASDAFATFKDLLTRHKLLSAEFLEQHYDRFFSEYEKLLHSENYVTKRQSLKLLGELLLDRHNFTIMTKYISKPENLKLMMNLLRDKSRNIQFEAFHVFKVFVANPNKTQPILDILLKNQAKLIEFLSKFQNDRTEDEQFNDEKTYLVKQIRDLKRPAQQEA
UniProt Q9Y2V2: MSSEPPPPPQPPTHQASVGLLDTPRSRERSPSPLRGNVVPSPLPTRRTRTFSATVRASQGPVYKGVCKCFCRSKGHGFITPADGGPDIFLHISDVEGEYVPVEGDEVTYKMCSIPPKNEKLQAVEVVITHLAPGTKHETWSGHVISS
UniProt Q9NS00: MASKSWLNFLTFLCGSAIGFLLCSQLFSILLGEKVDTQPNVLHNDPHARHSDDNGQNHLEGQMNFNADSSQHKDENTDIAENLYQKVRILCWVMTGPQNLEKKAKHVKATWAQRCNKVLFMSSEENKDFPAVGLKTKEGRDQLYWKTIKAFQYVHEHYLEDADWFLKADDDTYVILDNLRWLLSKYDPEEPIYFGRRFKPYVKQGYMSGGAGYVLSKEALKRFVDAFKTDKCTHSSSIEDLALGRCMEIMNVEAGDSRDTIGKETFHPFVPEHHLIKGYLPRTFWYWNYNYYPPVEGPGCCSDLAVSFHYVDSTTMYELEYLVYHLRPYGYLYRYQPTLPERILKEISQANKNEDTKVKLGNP
UniProt P49069: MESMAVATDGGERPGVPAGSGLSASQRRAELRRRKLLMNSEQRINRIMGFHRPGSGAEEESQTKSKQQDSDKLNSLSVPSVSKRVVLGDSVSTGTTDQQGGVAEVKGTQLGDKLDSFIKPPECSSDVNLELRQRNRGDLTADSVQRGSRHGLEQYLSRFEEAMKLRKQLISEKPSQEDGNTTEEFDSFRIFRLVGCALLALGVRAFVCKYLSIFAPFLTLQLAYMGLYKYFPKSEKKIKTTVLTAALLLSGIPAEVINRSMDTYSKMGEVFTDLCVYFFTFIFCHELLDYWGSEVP
UniProt Q49AR2: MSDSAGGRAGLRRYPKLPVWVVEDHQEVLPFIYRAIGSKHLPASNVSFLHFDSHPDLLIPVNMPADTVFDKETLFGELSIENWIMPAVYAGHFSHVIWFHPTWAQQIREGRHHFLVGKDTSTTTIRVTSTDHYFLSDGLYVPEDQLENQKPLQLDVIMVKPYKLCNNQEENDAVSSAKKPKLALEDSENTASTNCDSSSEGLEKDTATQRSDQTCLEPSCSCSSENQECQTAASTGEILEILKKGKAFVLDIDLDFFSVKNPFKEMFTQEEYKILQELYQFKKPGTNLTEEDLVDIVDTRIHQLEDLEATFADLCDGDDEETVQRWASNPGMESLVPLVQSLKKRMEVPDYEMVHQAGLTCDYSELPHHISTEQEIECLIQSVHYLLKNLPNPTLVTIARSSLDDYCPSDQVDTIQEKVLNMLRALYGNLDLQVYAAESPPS
UniProt Q9NZ63: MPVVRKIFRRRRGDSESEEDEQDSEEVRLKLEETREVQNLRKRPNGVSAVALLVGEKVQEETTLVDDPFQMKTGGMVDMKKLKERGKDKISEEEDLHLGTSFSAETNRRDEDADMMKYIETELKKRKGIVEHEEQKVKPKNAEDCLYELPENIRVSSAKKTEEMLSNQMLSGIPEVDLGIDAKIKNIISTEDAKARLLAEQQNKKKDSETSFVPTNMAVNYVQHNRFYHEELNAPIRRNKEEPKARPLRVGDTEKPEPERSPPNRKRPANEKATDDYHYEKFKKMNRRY
UniProt Q9HB71, whole entry, looked up: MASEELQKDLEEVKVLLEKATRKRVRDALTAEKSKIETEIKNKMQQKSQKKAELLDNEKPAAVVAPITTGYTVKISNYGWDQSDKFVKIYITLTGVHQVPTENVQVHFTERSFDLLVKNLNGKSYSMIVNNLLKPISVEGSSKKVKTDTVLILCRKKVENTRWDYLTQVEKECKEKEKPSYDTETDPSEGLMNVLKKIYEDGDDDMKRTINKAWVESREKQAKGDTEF
UniProt P47756, whole entry, looked up: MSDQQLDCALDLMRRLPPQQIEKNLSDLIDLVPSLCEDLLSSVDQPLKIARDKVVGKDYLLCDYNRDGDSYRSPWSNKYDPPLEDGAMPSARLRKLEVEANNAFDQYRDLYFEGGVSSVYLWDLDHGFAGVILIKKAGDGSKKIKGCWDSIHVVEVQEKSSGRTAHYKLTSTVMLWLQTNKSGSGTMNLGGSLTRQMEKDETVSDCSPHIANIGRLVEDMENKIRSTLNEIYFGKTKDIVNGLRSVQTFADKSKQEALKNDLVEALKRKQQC
UniProt Q9H425: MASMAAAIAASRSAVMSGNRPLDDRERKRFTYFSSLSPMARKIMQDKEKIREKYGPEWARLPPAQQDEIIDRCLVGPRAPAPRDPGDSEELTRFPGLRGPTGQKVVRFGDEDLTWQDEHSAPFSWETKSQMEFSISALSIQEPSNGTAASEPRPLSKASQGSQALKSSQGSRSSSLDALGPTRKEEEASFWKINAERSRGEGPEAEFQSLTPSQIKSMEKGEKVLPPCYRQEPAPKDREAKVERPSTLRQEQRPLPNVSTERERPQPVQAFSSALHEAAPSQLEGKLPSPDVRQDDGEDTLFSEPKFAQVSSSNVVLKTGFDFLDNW

What was measured:
Assay in all cases: log2 fold change, soluble protein after heating vs DMSO (PISA); higher = thermal stabilisation; K562 cells, 10 uM, 30 min; active = over 0.2 and 3.5 SD of the protein, either way, in both replicates (recomputed)
IRAK-1-4 Inhibitor I = compound: C1COCCN1CCN2C3=CC=CC=C3N=C2NC(=O)C4=CC(=CC=C4)[N+](=O)[O-] [IRAK-1-4 Inhibitor I]
How it was run: (§1)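 K562 cells at 2×10^6 cells/mL were exposed to 10 μM compound for 30 min, then aliquots were heated for 3 min across 48°C-58°C, pooled, and extracted in PBS containing 0.5% NP-40 at 4°C. The supernatant after 21,000xg for 90 min was taken as soluble protein and measured by TMTpro 16plex LC-MS/MS with channel sums equalised. Thermal stability is reported relative to control samples, with values from duplicates. Fold changes are given on a log2 scale.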

ibrutinib = compound: C=CC(=O)N1CCC[C@@H](n2nc(-c3ccc(Oc4ccccc4)cc3)c3c(N)ncnc32)C1 [ibrutinib]
How it was run: as §1

[1] = compound: CC(=O)c1cnc2ccc(-c3cc(Cl)c(O)c(Cl)c3)nc2c1N[C@H]1CC[C@H](CN(C)C)CC1
How it was run: as §1

ralimetinib = compound: CC(C)(C)Cn1c(N)nc2ccc(-c3[nH]c(C(C)(C)C)nc3-c3ccc(F)cc3)nc21 [ralimetinib]
How it was run: as §1

[2] = compound: CC(C)(O)CC(=O)NCCn1ccc2ncnc(Nc3ccc(Oc4cccc(C(F)(F)F)c4)c(Cl)c3)c21
How it was run: as §1

[3] = compound: CC(C)C1=C2N=C(C=C(N2N=C1)NCC3=CC=CC=C3)NCCCCCCN
How it was run: as §1

[4] = compound: CC(C)C[C@@H](C=O)NC(=O)[C@H](CC(C)C)NC(=O)[C@H](CC(C)C)NC(=O)OCc1ccccc1
How it was run: as §1

pinometostat = compound: CC(C)N(C[C@H]1O[C@@H](n2cnc3c(N)ncnc32)[C@H](O)[C@@H]1O)[C@H]1C[C@@H](CCc2nc3cc(C(C)(C)C)ccc3[nH]2)C1 [pinometostat]
How it was run: as §1

[5] = compound: CC1=C(C(CC(=O)N1)C2=CC=C(C=C2)C(F)(F)F)C(=O)NC3=C(C=C4C(=C3)C=NN4)F
How it was run: as §1

[6] = compound: CC1=C(C2=C(C=C1)C(=O)C3=CC=CC=C3N2CCCN)C
How it was run: as §1

[7] = compound: CC1=C(C=C(C=C1)NC(=O)C2=CC(=CC=C2)C(C)(C)C#N)NC3=CC4=C(C=C3)N=CN(C4=O)C
How it was run: as §1

[8] = compound: CC1=C(C=C(C=C1)NC(=O)C2=CC(=CC=C2)N(C)C)NC(=O)C3=CC=C(C=C3)O
How it was run: as §1

[9] = compound: CC1=CC=C(C=C1)SC2=C3C=C(SC3=CN=C2)C(=O)N
How it was run: as §1

[10] = compound: CC1=NC(=CC=C1)C2=C(N=C(N2)C(C)(C)C)C3=CC4=NC=CN=C4C=C3
How it was run: as §1

Nexturastat A = compound: CCCCN(Cc1ccc(C(=O)NO)cc1)C(=O)Nc1ccccc1 [Nexturastat A]
How it was run: as §1

vemurafenib = compound: CCCS(=O)(=O)Nc1ccc(F)c(C(=O)c2c[nH]c3ncc(-c4ccc(Cl)cc4)cc23)c1F [vemurafenib]
How it was run: as §1

[11] = compound: CCCS(=O)(=O)Nc1ccc(F)c(C(=O)c2c[nH]c3ncc(Cl)cc23)c1F
How it was run: as §1

[12] = compound: CCCc1cc(C)[nH]c(=O)c1CNC(=O)c1cc(-c2ccnc(N3CCN(C)CC3)c2)cc2c1cnn2C(C)C
How it was run: as §1

givinostat = compound: CCN(CC)Cc1ccc2cc(COC(=O)Nc3ccc(C(=O)NO)cc3)ccc2c1 [givinostat]
How it was run: as §1

barasertib = compound: CCN(CCCOc1ccc2c(Nc3cc(CC(=O)Nc4cccc(F)c4)[nH]n3)ncnc2c1)CCOP(=O)(O)O [barasertib]
How it was run: as §1

Measured: log2 fold change

CANT1 (UniProt Q8WVQ1)
inactive: IRAK-1-4 Inhibitor I 0.036 | ibrutinib 0.03 | [1] -0.019 | ralimetinib -0.062 | [2] 0.006 | [3] 0.004 | [4] -0.007 | pinometostat -0.036 | [5] 0.014 | [6] -0.055 | [7] -0.009 | [8] 0.021 | [9] 0.012 | [10] 0.014 | Nexturastat A -0.142 | vemurafenib -0.002 | [11] -0.005 | [12] -0.054 | givinostat -0.037 | barasertib 0.033

C18orf25 (UniProt Q96B23)
inactive: IRAK-1-4 Inhibitor I 0.03 | ibrutinib -0.002 | [1] 0.151 | ralimetinib -0.029 | [2] -0.033 | [3] 0.048 | [4] 0.048 | pinometostat -0.03 | [5] 0.057 | [6] -0.141 | [7] -0.036 | [8] 0.046 | [9] -0.008 | [10] -0.003 | Nexturastat A 0.007 | vemurafenib -0.016 | [11] -0.042 | [12] -0.021 | givinostat -0.01 | barasertib 0.001

CAPRIN1 (UniProt Q14444)
inactive: IRAK-1-4 Inhibitor I -0.202 | ibrutinib 0.066 | [1] 0.092 | ralimetinib 0.046 | [2] 0.106 | [3] 0.014 | [4] 0.003 | pinometostat 0.006 | [5] 0.015 | [6] -0.162 | [7] 0.059 | [8] 0.017 | [9] -0.062 | [10] 0 | Nexturastat A 0.183 | vemurafenib -0.055 | [11] -0.059 | [12] 0.094 | givinostat -0.035 | barasertib -0.167

C2orf69 (UniProt Q8N8R5)
inactive: IRAK-1-4 Inhibitor I -0.036 | ibrutinib -0.011 | [1] 0.072 | ralimetinib 0 | [2] -0.14 | [3] 0.064 | [4] 0 | pinometostat -0.032 | [5] -0.016 | [6] -0.026 | [7] 0.012 | [8] -0.004 | [9] 0.018 | [10] 0.051 | Nexturastat A -0.077 | vemurafenib -0.001 | [11] -0.015 | [12] 0.09 | givinostat -0.08 | barasertib 0.07

CAPNS1 (UniProt P04632)
inactive: IRAK-1-4 Inhibitor I 0.057 | ibrutinib 0.079 | [1] -0.017 | ralimetinib -0.129 | [2] 0.036 | [3] 0.029 | [4] -0.096 | pinometostat -0.037 | [5] 0.059 | [6] -0.026 | [7] 0.012 | [8] 0.001 | [9] 0.016 | [10] -0.014 | Nexturastat A -0.063 | vemurafenib -0.018 | [11] -0.001 | [12] -0.02 | givinostat -0.051 | barasertib -0.003

CAB39 (UniProt Q9Y376)
inactive: IRAK-1-4 Inhibitor I 0.044 | ibrutinib 0.014 | [1] 0.005 | ralimetinib -0.044 | [2] -0.02 | [3] 0.051 | [4] -0.013 | pinometostat -0.053 | [5] -0.002 | [6] 0.018 | [7] -0.027 | [8] 0.007 | [9] 0.039 | [10] 0.028 | Nexturastat A -0.153 | vemurafenib -0.001 | [11] 0.009 | [12] -0.041 | givinostat 0.027 | barasertib 0.007

CARHSP1 (UniProt Q9Y2V2)
inactive: IRAK-1-4 Inhibitor I 0.064 | ibrutinib -0.024 | [1] 0.039 | ralimetinib -0.056 | [2] -0.027 | [3] -0.048 | [4] 0.026 | pinometostat -0.023 | [5] -0.047 | [6] 0.013 | [7] 0.061 | [8] -0.047 | [9] 0.027 | [10] 0.002 | Nexturastat A -0.074 | vemurafenib -0.004 | [11] 0.023 | [12] -0.017 | givinostat -0.008 | barasertib 0.003

C1GALT1 (UniProt Q9NS00)
inactive: IRAK-1-4 Inhibitor I 0.04 | ibrutinib 0.042 | [1] -0.025 | ralimetinib -0.007 | [2] 0.07 | [3] 0.014 | [4] 0.029 | pinometostat 0.036 | [5] 0.159 | [6] 0.047 | [7] -0.016 | [8] 0.015 | [9] -0.014 | [10] -0.062 | Nexturastat A -0.058 | vemurafenib -0.014 | [11] -0.031 | [12] -0.095 | givinostat -0.006 | barasertib 0.054

C20orf27 isoform 2 (UniProt Q9GZN8)
inactive: IRAK-1-4 Inhibitor I 0.052 | ibrutinib 0.06 | [1] -0.043 | ralimetinib 0.017 | [2] -0.106 | [3] -0.011 | [4] -0.001 | pinometostat -0.014 | [5] -0.066 | [6] 0.023 | [7] -0.006 | [8] 0.009 | [9] 0.047 | [10] 0.054 | Nexturastat A 0.007 | vemurafenib 0.013 | [11] 0.06 | [12] -0.055 | givinostat 0.017 | barasertib -0.075

CAMLG (UniProt P49069)
inactive: IRAK-1-4 Inhibitor I 0.027 | ibrutinib -0.005 | [1] -0.009 | ralimetinib -0.04 | [2] 0.024 | [3] 0.046 | [4] 0.019 | pinometostat -0.029 | [5] -0.018 | [6] 0.021 | [7] 0.009 | [8] -0.054 | [9] 0.01 | [10] 0.028 | Nexturastat A -0.022 | vemurafenib -0.013 | [11] 0.013 | [12] -0.024 | givinostat -0.024 | barasertib 0.002

C5orf22 (UniProt Q49AR2)
inactive: IRAK-1-4 Inhibitor I 0.05 | ibrutinib -0.002 | [1] 0.022 | ralimetinib 0.023 | [2] 0.003 | [3] 0.013 | [4] -0.014 | pinometostat 0.009 | [5] -0.031 | [6] -0.015 | [7] -0.018 | [8] -0.052 | [9] -0.006 | [10] 0.018 | Nexturastat A -0.026 | vemurafenib -0.024 | [11] -0.007 | [12] 0.029 | givinostat -0.085 | barasertib 0.019

C9orf78 (UniProt Q9NZ63)
inactive: IRAK-1-4 Inhibitor I 0.058 | ibrutinib -0.01 | [1] 0.084 | ralimetinib -0.008 | [2] 0.007 | [3] 0.098 | [4] 0.001 | pinometostat -0.051 | [5] 0.016 | [6] -0.028 | [7] -0.005 | [8] 0.026 | [9] 0.008 | [10] 0.023 | Nexturastat A -0.026 | vemurafenib -0.016 | [11] -0.003 | [12] -0.026 | givinostat -0.037 | barasertib 0.008

CACYBP (UniProt Q9HB71)
inactive: IRAK-1-4 Inhibitor I 0.036 | ibrutinib 0.006 | [1] -0.014 | ralimetinib -0.022 | [2] -0.004 | [3] 0.02 | [4] -0.001 | pinometostat -0.001 | [5] 0.004 | [6] 0.037 | [7] 0.018 | [8] -0.002 | [9] -0.01 | [10] 0.021 | Nexturastat A -0.041 | vemurafenib -0.006 | [11] -0.042 | [12] 0.008 | givinostat -0.001 | barasertib 0.013

CAPZA2 (UniProt P47755)
inactive: IRAK-1-4 Inhibitor I 0.034 | ibrutinib 0.003 | [1] 0.011 | ralimetinib 0 | [2] -0.033 | [3] 0.015 | [4] -0.012 | pinometostat -0.027 | [5] 0.014 | [6] -0.009 | [7] 0.018 | [8] 0.022 | [9] 0.063 | [10] 0.069 | Nexturastat A -0.092 | vemurafenib 0.006 | [11] 0.094 | [12] -0.065 | givinostat -0.021 | barasertib -0.002

CAPZB isoform 2 (UniProt P47756)
inactive: IRAK-1-4 Inhibitor I 0.057 | ibrutinib -0.02 | [1] 0.054 | ralimetinib -0.024 | [2] 0.008 | [3] 0.069 | [4] -0.07 | pinometostat 0.029 | [5] 0.02 | [6] -0.056 | [7] -0.038 | [8] -0.035 | [9] -0.052 | [10] 0.015 | Nexturastat A -0.068 | vemurafenib -0.053 | [11] -0.047 | [12] 0.056 | givinostat -0.027 | barasertib 0.057

C1orf198 (UniProt Q9H425)
inactive: IRAK-1-4 Inhibitor I 0.08 | ibrutinib -0.003 | [1] 0.035 | ralimetinib 0.007 | [2] -0.003 | [3] 0.015 | [4] 0.124 | pinometostat -0.021 | [5] 0.008 | [6] -0.03 | [7] 0.023 | [8] -0.025 | [9] 0.073 | [10] -0.005 | Nexturastat A 0.14 | vemurafenib -0.023 | [11] -0.07 | [12] 0.023 | givinostat -0.028 | barasertib 0.047
